Measurements reported in patent publication US6965850B2, “Methods for modulating nuclear receptor coactivator binding” (The Regents of the University of California, priority 1998, dated 2005).
For some assays here: Part of at least one peptide drawing is inferred or uncertain, most often the ends. For some assays here: At least one structure is not confirmed: it was looked up by name or label, or the drawing left a doubt. Peptide text beside a SMILES is read from it.

Assays:
hTRβ LBD = biological target: T1, hTRβ LBD (Homo sapiens, UniProt P10828); test: Peptide competition of GRIP1 (563-767) interaction with hTRβ LBD; assay type: binding; design: made in house; host or cells: TR LBD: in vitro translation (reticulocyte lysate); GST-GRIP1 fragment: E. coli HB101
T1 sequence (P10828 202-461): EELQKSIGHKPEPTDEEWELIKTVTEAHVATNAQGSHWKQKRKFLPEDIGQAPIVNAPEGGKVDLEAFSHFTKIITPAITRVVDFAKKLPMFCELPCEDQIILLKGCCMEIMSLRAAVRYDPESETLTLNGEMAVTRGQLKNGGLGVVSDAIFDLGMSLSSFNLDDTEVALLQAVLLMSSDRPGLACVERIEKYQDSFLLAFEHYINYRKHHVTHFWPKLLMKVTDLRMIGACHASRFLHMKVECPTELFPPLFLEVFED
Method: (§1) For in vitro binding studies GR, TR and their derivatives were translated in the presence of [^35S]methionine using the TNT Coupled Reticulocyte System (Promega). Separate translations were performed in the presence and absence of 10 μM dexamethasone or 1 μM RU486 for GR and 10 μM triiodothyronine for TR. Expression was quantified by phosphoimager analysis (BAS2000, Fuji). For all binding assays 50 μl of a 20% bead suspension containing either 1.6 or 4.0 μM bound purified GST GRIP1 fragment (either 568-767 or 563-1121) was incubated with 0.2 μl or 1.4 μl in vitro transcribed and translated TR or GR, respectively. Binding was performed in the binding buffer described above supplemented with 20 μg/ml BSA and appropriate hormone. The chosen GST GRIP1 fragment concentrations were sufficient to bind either 70 or 100% of the TR derivatives. The reaction was incubated at 4° C. under rotation for 2 hours. In case of competition experiments, the appropriate concentration of peptides were added to the reaction before addition of receptors. However, no differences in the results were noted by adding the peptides after half of the incubation of the GST GRIP1 fragment with nuclear receptors. […] The fraction of bound nuclear receptors was determined by phosphoimager analysis.

GR = test: GST-GRIP1 fragment pull-down of GR; assay type: binding; settings: GRIP1 (563-1121)
Method: as §1

| SMILES | competition with GRIP1 (563-767) containing functional NR-boxes 2 and 3 versus mutant with only functional NR-box 2 (hTRβ LBD) | GR interaction with larger GRIP1 fragment in the presence of the compound (GR) |
| --- | --- | --- |
| CC(C)C[C@H](NC(=O)[C@H](C)NC(=O)[C@H](CC(N)=O)NC(=O)[C@@H](N)CCC(=O)O)C(=O)N[C@@H](CC(C)C)C(=O)N[C@@H](CCCNC(=N)N)C(=O)N[C@@H](Cc1ccc(O)cc1)C(=O)N[C@@H](CC(C)C)C(=O)N[C@@H](CC(C)C)C(=O)N[C@@H](CC(=O)O)C(=O)N[C@@H](CCCCN)C(=O)N[C@@H](CC(=O)O)C(=O)N[C@@H](CC(=O)O)C(=O)O [NR-box 3 peptide] (H-ENALLRYLLDKDD-OH; N-terminus and C-terminus assumed) | comparable affinity | – |
| CC#C[C@]1(O)CC[C@H]2[C@@H]3CCC4=CC(=O)CCC4=C3[C@@H](c3ccc(N(C)C)cc3)C[C@@]21C [RU486, reference compound] | – | no interaction can be observed |
